Among the data in article PMC8854551 are binding values, retold here.

By UniProt entry, the sequences of proteins in these tests, tags left out.
UniProt Q14573: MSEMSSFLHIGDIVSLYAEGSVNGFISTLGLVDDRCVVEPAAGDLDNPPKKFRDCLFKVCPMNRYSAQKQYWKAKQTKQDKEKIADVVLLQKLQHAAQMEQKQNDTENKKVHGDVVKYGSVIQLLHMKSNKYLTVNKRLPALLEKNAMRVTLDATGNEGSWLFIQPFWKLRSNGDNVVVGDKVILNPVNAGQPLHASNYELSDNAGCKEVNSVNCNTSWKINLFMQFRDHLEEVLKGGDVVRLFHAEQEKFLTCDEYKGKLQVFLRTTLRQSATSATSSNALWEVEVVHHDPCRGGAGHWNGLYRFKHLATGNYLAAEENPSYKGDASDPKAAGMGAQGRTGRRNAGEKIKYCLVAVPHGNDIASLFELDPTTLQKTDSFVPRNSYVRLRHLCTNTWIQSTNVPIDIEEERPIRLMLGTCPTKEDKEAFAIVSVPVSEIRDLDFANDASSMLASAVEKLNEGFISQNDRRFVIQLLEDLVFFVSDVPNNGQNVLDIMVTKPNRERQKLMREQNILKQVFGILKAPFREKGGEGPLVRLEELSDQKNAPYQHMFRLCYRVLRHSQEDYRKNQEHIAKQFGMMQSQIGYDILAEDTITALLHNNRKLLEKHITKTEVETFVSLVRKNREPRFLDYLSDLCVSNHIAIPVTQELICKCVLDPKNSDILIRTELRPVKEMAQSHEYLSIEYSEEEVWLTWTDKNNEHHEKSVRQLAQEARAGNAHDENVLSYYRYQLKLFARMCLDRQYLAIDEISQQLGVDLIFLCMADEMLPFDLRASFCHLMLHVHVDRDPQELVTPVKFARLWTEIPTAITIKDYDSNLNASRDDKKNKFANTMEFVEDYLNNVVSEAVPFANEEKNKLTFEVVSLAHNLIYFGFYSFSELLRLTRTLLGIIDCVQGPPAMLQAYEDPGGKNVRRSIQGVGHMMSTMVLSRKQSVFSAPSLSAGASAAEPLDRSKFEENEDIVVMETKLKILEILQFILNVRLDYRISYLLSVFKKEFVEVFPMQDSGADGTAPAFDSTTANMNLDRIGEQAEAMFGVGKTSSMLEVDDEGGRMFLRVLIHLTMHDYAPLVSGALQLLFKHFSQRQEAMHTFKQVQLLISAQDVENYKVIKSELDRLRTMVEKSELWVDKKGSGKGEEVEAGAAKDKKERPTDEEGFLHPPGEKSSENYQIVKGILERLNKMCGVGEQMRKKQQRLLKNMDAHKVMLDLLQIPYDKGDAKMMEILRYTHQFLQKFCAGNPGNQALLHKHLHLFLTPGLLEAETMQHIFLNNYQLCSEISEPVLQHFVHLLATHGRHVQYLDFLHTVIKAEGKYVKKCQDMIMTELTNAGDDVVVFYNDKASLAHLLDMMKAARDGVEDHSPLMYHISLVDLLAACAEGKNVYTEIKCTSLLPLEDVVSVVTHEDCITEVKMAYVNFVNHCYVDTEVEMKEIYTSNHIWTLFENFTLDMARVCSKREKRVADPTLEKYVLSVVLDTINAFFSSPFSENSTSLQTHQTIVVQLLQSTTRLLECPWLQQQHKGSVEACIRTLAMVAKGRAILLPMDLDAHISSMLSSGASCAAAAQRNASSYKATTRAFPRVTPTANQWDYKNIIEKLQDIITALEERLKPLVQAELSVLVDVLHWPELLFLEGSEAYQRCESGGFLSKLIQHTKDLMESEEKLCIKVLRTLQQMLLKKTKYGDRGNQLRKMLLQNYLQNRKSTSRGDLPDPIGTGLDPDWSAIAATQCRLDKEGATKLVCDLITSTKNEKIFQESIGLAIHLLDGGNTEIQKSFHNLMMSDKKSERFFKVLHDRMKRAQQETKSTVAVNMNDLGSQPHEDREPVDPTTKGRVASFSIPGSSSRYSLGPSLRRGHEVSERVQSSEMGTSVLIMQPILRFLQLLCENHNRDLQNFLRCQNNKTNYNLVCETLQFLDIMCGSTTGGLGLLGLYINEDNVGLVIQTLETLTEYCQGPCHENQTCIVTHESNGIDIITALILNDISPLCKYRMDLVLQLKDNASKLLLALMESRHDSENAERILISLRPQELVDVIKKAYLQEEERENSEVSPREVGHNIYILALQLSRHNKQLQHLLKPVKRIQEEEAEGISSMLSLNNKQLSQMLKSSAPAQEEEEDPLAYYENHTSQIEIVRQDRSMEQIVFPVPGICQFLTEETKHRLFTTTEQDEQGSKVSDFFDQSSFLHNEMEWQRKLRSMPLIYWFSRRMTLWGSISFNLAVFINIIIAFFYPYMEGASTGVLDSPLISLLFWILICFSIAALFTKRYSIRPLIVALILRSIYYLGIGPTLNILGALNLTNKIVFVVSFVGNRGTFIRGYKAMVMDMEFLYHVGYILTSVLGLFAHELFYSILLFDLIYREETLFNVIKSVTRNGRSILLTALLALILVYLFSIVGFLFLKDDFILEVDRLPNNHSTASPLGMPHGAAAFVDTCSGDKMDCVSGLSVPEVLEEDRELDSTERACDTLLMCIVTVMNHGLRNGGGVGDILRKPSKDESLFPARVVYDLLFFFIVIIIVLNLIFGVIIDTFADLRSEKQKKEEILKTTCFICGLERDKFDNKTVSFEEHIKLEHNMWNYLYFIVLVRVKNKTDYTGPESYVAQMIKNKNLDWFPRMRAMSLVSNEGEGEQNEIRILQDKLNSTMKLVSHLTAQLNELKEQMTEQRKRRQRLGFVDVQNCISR

Results are given in words; binding and its absence hold for the method and conditions named. Binding seen in cells or lysates may run through a third protein. Some results given as binding are weak or reduced against the parent protein; the word gives no strength.

The target of this experiment is IP3 receptor type 3 (human (endogenous in fibroblasts)) (UniProt Q14573). Briefly: co-IP; fibroblast lysates; protein A/G agarose beads coupled with rabbit anti-TRPC3 or rabbit anti-IP3R3 (5 ug/mg lysate), overnight at +4 C, five washes in IP buffer, western blot. A general note: A western blot detects proteins with antibodies after separation by electrophoresis.

B1: TRPC3 protein (protein, UniProt Q13507-3 1-848)
chain: MEGSPSLRRMTVMREKGRRQAVRGPAFMFNDRGTSLTAEEERFLDAAEYGNIPVVRKMLEESKTLNVNCVDYMGQNALQLAVGNEHLEVTELLLKKENLARIGDALLLAISKGYVRIVEAILNHPGFAASKRLTLSPCEQELQDDDFYAYDEDGTRFSPDITPIILAAHCQKYEVVHMLLMKGARIERPHDYFCKCGDCMEKQRHDSFSHSRSRINAYKGLASPAYLSLSSEDPVLTALELSNELAKLANIEKEFKNDYRKLSMQCKDFVVGVLDLCRDSEEVEAILNGDLESAEPLEVHRHKASLSRVKLAIKYEVKKFVAHPNCQQQLLTIWYENLSGLREQTIAIKCLVVLVVALGLPFLAIGYWIAPCSRLGKILRSPFMKFVAHAASFIIFLGLLVFNASDRFEGITTLPNITVTDYPKQIFRVKTTQFTWTEMLIMVWVLGMMWSECKELWLEGPREYILQLWNVLDFGMLSIFIAAFTARFLAFLQATKAQQYVDSYVQESDLSEVTLPPEIQYFTYARDKWLPSDPQIISEGLYAIAVVLSFSRIAYILPANESFGPLQISLGRTVKDIFKFMVLFIMVFFAFMIGMFILYSYYLGAKVNAAFTTVEESFKTLFWSIFGLSEVTSVVLKYDHKFIENIGYVLYGIYNVTMVVVLLNMLIAMINSSYQEIEDDSDVEWKFARSKLWLSYFDDGKTLPPPFSLVPSPKSFVYFIMRIVNFPKCRRRRLQKDIEMGMGNSKSRLNLFTQSNSRVFESHSFNSILNQPTRYQQIMKRLIKRYVLKAQVDKENDEVNEGELKEIKQDISSLRYELLEDKSQATEELAILIHKLSEKLNPSMLRCE
For the molecule B1, the binding entry was “binds”.
